In PubChem BioAssay AID1259354 (Paczesny and Yang Labs, IUPUI and University of Michigan, 2018):
Several values for one entry are separate records, joined by “and”; a condition that tells them apart may be missing. Equal entries are not always repeated. Out of some 78,000 compounds screened, about 1,800 (2.3%) were called active. The shares of active, inactive and inconclusive entries below differ from those in the screen. Cut-off read from the data, not from the text of the source: active = inhibition above about 30%; inconclusive = mostly about 10% to 28%; inactive = weaker than that.

Amino acid sequences for entries named in this document (tags omitted). A change or cut given only in a name is not applied to a line headed by its entry.
UniProt Q01638: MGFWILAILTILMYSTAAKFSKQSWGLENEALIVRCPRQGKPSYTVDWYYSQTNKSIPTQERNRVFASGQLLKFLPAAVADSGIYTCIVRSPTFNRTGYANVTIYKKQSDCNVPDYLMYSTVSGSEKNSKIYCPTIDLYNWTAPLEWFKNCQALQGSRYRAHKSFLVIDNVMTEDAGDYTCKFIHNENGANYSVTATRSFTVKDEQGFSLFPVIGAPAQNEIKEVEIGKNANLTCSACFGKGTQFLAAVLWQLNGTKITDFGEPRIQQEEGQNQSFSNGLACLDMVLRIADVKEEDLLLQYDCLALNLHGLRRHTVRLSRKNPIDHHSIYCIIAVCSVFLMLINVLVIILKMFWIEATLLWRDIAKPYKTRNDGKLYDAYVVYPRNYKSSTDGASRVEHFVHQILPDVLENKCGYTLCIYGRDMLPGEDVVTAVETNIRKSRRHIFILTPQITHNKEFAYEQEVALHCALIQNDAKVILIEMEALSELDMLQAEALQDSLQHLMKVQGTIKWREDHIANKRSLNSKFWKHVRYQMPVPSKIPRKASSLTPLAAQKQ

target: Interleukin-1 receptor-like 1 (Homo sapiens) (UniProt Q01638); assay: blocks human ST2 binding to IL-33, primary screen, biochemical, AlphaLISA (AID 1259354); conditions: AlphaLISA ST2-Fc/biotin-IL-33 interaction, 1 h; at 17 µM, stronger effect = higher value

Row | SMILES | inhibition
1 | Cc1ccc2nc(N=S(=O)(O)c3ccc(Cl)cc3)c(Cl)nc2c1 | inactive
2 | NC(=O)c1ccccc1NC1=NS(=O)(=O)c2ccccc21 | inconclusive: 18%
3 | Cn1c(OCc2ccccc2)nc2c1c(=O)n(Cc1ccc(Cl)cc1)c(=O)n2C | inconclusive: 15%
4 | COc1ccc(Nc2cc(C)nc(Nc3ccc(NC(=O)c4cc(C)cc(C)c4)cc3)n2)cc1 | inconclusive: 10%
5 | Cc1nn(C(=O)CCCCCNC(=O)c2ccccc2)c(C)c1Cl | inactive
6 | COC1(NS(=O)(=O)c2ccc(Br)cc2)C(C)=CC(=O)C=C1C | inconclusive: 10%
7 | COc1ccc(Oc2ccc3[nH]c4c(c3c2)CCCC4=NCCO)cc1 | inconclusive: 18%
8 | NS(=O)(=O)c1cccc2c1c([N+](=O)[O-])cc1nc(O)c(O)nc12 | inconclusive: 17%
9 | Cc1ccc(C2=CSC3=NCCN23)cc1C | inactive
10 | O=C1N(Cc2ccccn2)C(=O)C2(CCN(C3CCOCC3)CC2)N1Cc1ccccc1 | inactive
11 | Cc1nc(CC(=O)NCCNc2ccncc2C)cs1 | inconclusive: 15%
12 | Cc1ccc(Nc2nc(-c3ccccc3)cs2)cc1Cl | inconclusive: 24%
13 | CCC1(CC)CN(c2ccnc(C(=O)NCCOC)c2)CCO1 | inconclusive: 12%
14 | CC1c2cccn2CCN1C(=O)c1cn2ccsc2n1 (centres undefined) | inconclusive: 22%
15 | CCOC(=O)c1[nH]c2ccccc2c1NC(=O)c1ccc(Br)o1 | inconclusive: 12%
16 | CC(=O)N1c2ccc(S(=O)(=O)N3CCOCC3)cc2CC1C(=O)N1CCc2ccccc2C1 (centres undefined) | inconclusive: 10%
17 | O=C(N[C@H]1CCN2C(=O)c3cc(-c4ccc5c(c4)OCO5)ccc3NC(=O)[C@H]12)c1cccc(F)c1 | inconclusive: 11%
18 | NC(=O)c1ccccc1NC(=O)c1cc(-c2ccc(Cl)s2)nc2ccccc12 | inconclusive: 21% and inconclusive: 16%
19 | O=C(C1CC1)N1CCc2cc(Br)cc(S(=O)(=O)Nc3cccc(Cl)c3)c21 | inactive
20 | COc1ccc(NC(=O)c2oc3ccccc3c2NC(=O)COc2ccccc2F)cc1 | inactive
21 | COc1cccc(CN2CCCC(N3CCN(c4cccc(Cl)c4)CC3)C2)c1OC (centres undefined) | inconclusive: 18%
22 | Cc1n[nH]c(C)c1S(=O)(=O)Nc1ccc(C(C)C)cc1 | inconclusive: 12%
23 | COc1ccc(C(=O)Nc2cc(-c3nc4ncccc4o3)ccc2C)cc1OC | inconclusive: 19%
24 | O=C(Nc1ccc(-c2nc3ccccc3s2)cc1)c1cc(=O)c2ccccc2o1 | inconclusive: 21%

Row | SMILES | inhibition
25 | N#C/C(=C\c1ccc([N+](=O)[O-])cc1)c1nc(-c2ccc(Cl)c(Cl)c2)cs1 | inconclusive: 22%
26 | Cc1nc(SCC(=O)c2ccccc2)c2c(=O)n(C)c(=O)n(C)c2n1 | inactive
27 | CCCN(CCC)S(=O)(=O)c1ccc(C(=O)Nc2nnc(C3CC3)o2)cc1 | inconclusive: 13%
28 | CC1=C(C(=O)Nc2ccccn2)C(c2cccc([N+](=O)[O-])c2)C2=C(CCCC2=O)N1 (centres undefined) | inactive
29 | CN(CCc1ccccn1)c1ncccc1CNC(=O)c1cnn2ccccc12 | inactive
30 | CN1C[C@@H](NC(=O)C2CC2)C[C@H]1c1nc(-c2ccncc2)no1 | inconclusive: 14%
31 | COc1ccc(-c2noc([C@@H]3C[C@H](N(C)C)CN3C)n2)cc1 | inconclusive: 17%
32 | Cc1cccc(-c2cnc(C)nc2C2CCCN(C(=O)c3ccc(Oc4ccccc4)o3)C2)c1 (centres undefined) | inconclusive: 16%
33 | CCOc1cccc(-c2ccc(Cn3ccnc3)cn2)c1 | inconclusive: 11%
34 | COc1ncc(CN2CCC(c3[nH]ncc3-c3cccc(F)c3)CC2)cn1 | inconclusive: 17%
35 | Cn1c(=O)cc(SCC(=O)NCCCN2CCCCCC2)c2ccccc21 | inactive
36 | CC1(C)Cc2c(cnn2-c2ccccc2)C(NC(=O)c2ccc(Cn3cnnn3)cc2)C1 (centres undefined) | inconclusive: 12%
37 | CC(C)c1nc(Cn2ccnc2-c2ccc(-c3ccn[nH]3)s2)no1 | inactive
38 | O=C(Nc1cc(Cl)ccc1O)c1cc(C2CC2)on1 | inactive
39 | C=C(C)c1cccc(C(C)(C)NC(=O)N2CCN(c3ccccn3)CC2)c1 | inconclusive: 11%
40 | COC(=O)c1cc(CN2CCN(c3ncnc4ccccc34)CC2)cs1 | inconclusive: 18%
41 | COc1cc(NC(=O)NC[C@H]2O[C@@H](CO)[C@@H](O)[C@H]2N2CCCC2)cc(OC)c1 | inconclusive: 19%
42 | Cc1ccccc1Nc1c(-c2ccccn2)nc2ccccn12 | inconclusive: 22%
43 | O=C(Nc1cc2c(cc1Cl)OCCO2)c1cc(Cl)ccc1O | inactive
44 | CCC1SC(=Nc2ccccc2)N(S(=O)(=O)c2ccccc2)C1=O (centres undefined) | inconclusive: 11%
45 | CC(=O)N1/C(=C/c2ccc([N+](=O)[O-])cc2)C(=O)c2ccccc21 | active: 51%
46 | COc1ccc(OC)c(Nc2c3c(nc4ccccc24)CCC3)c1 | inconclusive: 11%
47 | COc1cccc(-n2cc(CN(C)CC3CCOC3)cn2)c1 (centres undefined) | inconclusive: 10%
48 | Cc1ccc(-c2noc(COc3ccccc3Cl)n2)cc1 | inactive

Row | SMILES | inhibition
49 | Oc1cccc2ccc[n+](CC(O)Cn3c4ccccc4c4ccccc43)c12 (centres undefined) | inconclusive: 26%
50 | Cc1[nH]c2ccc([N+](=O)[O-])cc2c1-c1ccccc1 | inconclusive: 14%
51 | N#CC1=C(N)OC2=C(C(=O)CC(c3ccco3)C2)C1c1ccc(OCc2ccccc2F)cc1 (centres undefined) | inconclusive: 17%
52 | CCOc1ccc(NC(=O)Cc2ccc([N+](=O)[O-])cc2)cc1 | inactive
53 | O=C(O)C[C@@H]1CCN(C(=O)c2ccc(F)cc2)C[C@@H]1CCN1CCOCC1 | inconclusive: 13%
54 | O=C1CCCC2=C1C(c1ccc(O)cc1)n1nc(SCc3ccccc3)nc1N2 (centres undefined) | inconclusive: 14%
55 | Cc1[nH]c2ccccc2c1CN1CCC(O)(Cc2cc(-c3ccccc3)no2)CC1 | inconclusive: 11%
56 | O=C(O)c1coc(COc2cccc3cccnc23)n1 | inconclusive: 14%
57 | COC(=O)c1ccc(N2C(=O)CSC2c2ccc(Cl)c(Cl)c2)cc1 (centres undefined) | inactive
58 | O=C(Nc1ccccc1)N1Cc2[nH]cnc2C[C@H]1c1nc(-c2ccc3ccccc3c2)no1 | active: 38%
59 | O=C(NCc1ccco1)c1ccc2c(c1)N(Cc1cccc(Cl)c1)C(=O)CS2 | inactive
60 | Cc1ccn2cc(-c3ccc(S(=O)(=O)N(C)C)cc3)nc2c1 | inactive
61 | COc1ccc(S(=O)(=O)NC(Cc2ccc(Cl)cc2)C(=O)O)cc1 (centres undefined) | inconclusive: 19%
62 | Cc1noc(-c2ccc(N(C)Cc3cccnc3)nc2)n1 | inactive
63 | CCN(CC)C(=O)C12C[C@@H]3C[C@@H](CC(Cl)(C3)C1)C2 | inactive
64 | COc1ccc(C2SCCN2S(=O)(=O)c2ccc(Cl)c(Cl)c2)cc1 (centres undefined) | inactive
65 | COc1cc(/C=C2/C(=O)NN(c3ccc(C)c(Cl)c3)C2=O)ccc1OCC#N | inconclusive: 17%
66 | CC(NC(=O)CSc1nc2ccccc2[nH]1)c1ccccc1 (centres undefined) | inconclusive: 22%
67 | CCCCN(CC)CCCNC(=O)c1ccc2c(c1)NC(=O)CS2 | inconclusive: 13%
68 | CCCC(C)NC(=O)c1ccc(N(C)C)cc1 (centres undefined) | inactive
69 | Cc1ccc(S(=O)(=O)CC(=O)c2ccccc2)cc1 | inconclusive: 14%
70 | CCN(CC)C1CC(=O)N(c2ccccc2)C1=O (centres undefined) | inactive
71 | COc1ccc(S(=O)(=O)N2CCNC(C(=O)O)C2)c2c1CCCC2 (centres undefined) | inconclusive: 16%
72 | CNCC(=O)N1CCCCC1c1ccc(CN(C)C)cc1 (centres undefined) | inconclusive: 20%

Row | SMILES | inhibition
73 | CC(C)c1ccc(NS(=O)(=O)c2cccc3nonc23)cc1 | inconclusive: 11%
74 | N#Cc1nc(COc2ccccc2F)oc1NCCCn1ccnc1 | inconclusive: 27%
75 | Cc1cccc(C)c1NC(=O)c1ccc(C(=O)Nc2c(C)cccc2C)nc1 | inactive
76 | CCOc1ccc(Br)cc1/C=C1/C(=O)N(c2ccccc2)N=C1C | inconclusive: 10%
77 | CCCCOC(=O)C1=C(C)Nc2nnnn2C1c1ccc(C)cc1 (centres undefined) | inactive
78 | CC(=O)Nc1ccc(S(=O)(=O)N2CCN(C/C=C/c3ccccc3)CC2)cc1 | inactive
79 | COc1cc(OC)cc(C(=O)N2CCN=C2SCc2c(F)cccc2Cl)c1 | inactive
80 | CC(C)Nc1cc(-c2cc(Cl)c3c(c2)CC(CN)O3)ncn1 (centres undefined) | inconclusive: 20%
81 | CCn1ccnc1CN1CCCC(C(=O)Nc2ccc(-c3nc4ccccc4[nH]3)cc2)C1 (centres undefined) | inactive
82 | O=C(/C=C/c1ccccc1Cl)Nc1cccc(C(F)(F)F)c1 | inconclusive: 18%
83 | COc1ccc(C(CCNCc2ccc(N(C)C)cc2)C2CCOC(C)(C)C2)cc1 (centres undefined) | inconclusive: 14%
84 | COC(=O)[C@H](c1ccccc1)n1ccnc1-c1ccc(OC)c(O)c1 | inconclusive: 11%
85 | O=C(Nc1ccccc1)c1cc2n(n1)CCCN(C(=O)c1csnn1)C2 | inconclusive: 11%
86 | CCc1ccccc1NS(=O)(=O)c1cc(Br)cc2c1N(C(=O)C1CC1)CC2 | inactive
87 | O=C1CCN(c2ccccc2C(=O)Nc2cnc3n2CCCC3)C(=O)N1 | inactive
88 | CCOc1ccc2c(c1)C(=NO)c1cc(OCC)ccc1-2 | inconclusive: 15%
89 | COc1cc(C2Nc3ccc4ncccc4c3C3=C2C(=O)CC(C)(C)C3)ccc1O (centres undefined) | inconclusive: 10%
90 | O=C(O)CSCC(=O)N[C@H]1CO[C@H]2[C@@H]1OC[C@@H]2Nc1nccc(-c2ccc3c(c2)OCO3)n1 | inconclusive: 12%
91 | Cc1cc(N2CCN(C)CC2)nc2ccc(NC(=O)CCC(=O)N3CCCCCC3)cc12 | inactive
92 | O=C(Cn1cnc2c(oc3ccccc32)c1=O)NC1CCCC1 | inconclusive: 14%
93 | COc1ccc(NC(=O)c2ccc(-c3ccccc3)cc2)c([N+](=O)[O-])c1 | inactive
94 | O=C1C2C(C(=O)N1Cc1ccc(F)cc1)C1C=CC2[C@H]2C(=O)N(Cc3ccc(F)cc3)C(=O)[C@@H]12 (some centres undefined) | inactive

Quoted from the listing, six compounds:
Row | SMILES | inhibition
76 | CCOc1ccc(Br)cc1/C=C1/C(=O)N(c2ccccc2)N=C1C | inconclusive: 10%
77 | CCCCOC(=O)C1=C(C)Nc2nnnn2C1c1ccc(C)cc1 (centres undefined) | inactive
78 | CC(=O)Nc1ccc(S(=O)(=O)N2CCN(C/C=C/c3ccccc3)CC2)cc1 | inactive
79 | COc1cc(OC)cc(C(=O)N2CCN=C2SCc2c(F)cccc2Cl)c1 | inactive
80 | CC(C)Nc1cc(-c2cc(Cl)c3c(c2)CC(CN)O3)ncn1 (centres undefined) | inconclusive: 20%
81 | CCn1ccnc1CN1CCCC(C(=O)Nc2ccc(-c3nc4ccccc4[nH]3)cc2)C1 (centres undefined) | inactive
